{"source": "PubChem BioAssay AID540256", "about": "(National Center for Advancing Translational Sciences (NCATS), 2011)", "note": "Hit rate of the full screen: of about 300,000 compounds, about 3,700 (1.2%) were called active. Inconclusive results, whose numbers are uncertain, are shown with a selection of clear calls. Calls come from the whole dose curve; tested in HEK293 cells. Potencies of inconclusive entries are doubtful fits and often do not repeat. % is set by controls: 0 for no effect and ±100 for the full control effect; potency is the fitted concentration of half-maximal effect."}
{"assay": "qHTS for Inhibitors of binding or entry into cells for Lassa Virus; note: nearly all actives have a fitted effect of over 50% in size", "conditions": "Lassa virus pseudotype entry inhibition, cell reporter; activity change, negative = inhibition: at 37.9 µM (top of the series) unless noted"}
{"smiles": "Cc1ccc(CNS(=O)(=O)c2cc(C(=O)Nc3cccc(C(F)(F)F)c3)ccc2F)cc1", "activity change, negative = inhibition": "inactive: 3.94% [at 46.1 µM]"}
{"smiles": "CC(=O)OC(C(=O)NCc1ccco1)c1cccnc1", "note": "(configuration not stated)", "Potency": "inconclusive: 6.31 µM [inhibitor, single point]"}
{"smiles": "COc1ccc(C(=O)OC2CCN(c3ncc(C(F)(F)F)cc3Cl)CC2)cc1", "Potency": "inconclusive: 18.3 µM [inhibitor, partial curve, poor fit]"}
{"smiles": "O=C1CSC(=S)N1/N=C/c1ccc2c(c1)OCCO2", "activity change, negative = inhibition": "inactive: 4.6% [at 46.1 µM]"}
{"smiles": "OCc1cccc[n+]1Cc1ccccc1", "Potency": "inconclusive: 5.01 µM [inhibitor, full curve, poor fit]"}
{"smiles": "CCN(CC)c1nc(-c2ccccc2)nc2ccccc12", "activity change, negative = inhibition": "inactive: -9.39%"}
{"smiles": "Cc1cc(Oc2ccc(C)c(Cl)c2)nc(SCC(=O)c2ccccc2)n1", "Potency": "inconclusive: 11.2 µM [inhibitor, partial curve, poor fit]"}
{"smiles": "CC1c2ccccc2SC(CCCN(C)C)c2ccccc21", "note": "(configuration not stated)", "Potency": "inconclusive: 20.6 µM [inhibitor, single point]"}
{"smiles": "COc1ccc(C(=O)NNC2=C(C(=O)C(F)(F)F)CCC2)cc1", "Potency": "inconclusive: 3.16 µM [inhibitor, partial curve, poor fit]"}
{"smiles": "CCSc1nnc(NC(=O)c2ccc3nc[nH]c3c2)s1", "Potency": "inconclusive: 7.08 µM [activator, partial curve, poor fit]"}
{"smiles": "Cc1ccc(NC(=S)NC(=O)c2cccs2)cc1F", "activity change, negative = inhibition": "inactive: -28% [at 46.1 µM]"}
{"smiles": "Fc1ccc(C(c2nnnn2Cc2ccccc2)N2CCSCC2)cc1", "note": "(configuration not stated)", "Potency": "inconclusive: 0.231 µM [inhibitor, full curve, poor fit]"}
{"smiles": "CCS(=O)(=O)c1ncc(Cl)c(C(=O)N2CCN(c3cccc(Cl)c3)CC2)n1", "Potency": "inconclusive: 11.2 µM [inhibitor, partial curve, poor fit]"}
{"smiles": "CN(C)S(=O)(=O)c1cccc(NC(=O)c2cccc(NS(=O)(=O)c3ccccc3)c2)c1", "Potency": "inconclusive: 31.6 µM [inhibitor, partial curve, poor fit]"}
{"smiles": "COCCOC(=O)N/C=C\\c1nc2ccccc2c(=O)[nH]1", "Potency": "inconclusive: 11.2 µM [inhibitor, partial curve, poor fit]"}
{"smiles": "CC(=O)Nc1ccc(S(=O)(=O)NCc2cn3ccsc3n2)cc1", "Potency": "inconclusive: 29.1 µM [activator, partial curve, poor fit]"}
{"smiles": "CN(C)NC(=S)Nc1ccc(Cl)cc1", "activity change, negative = inhibition": "inactive: 3.92%"}
{"smiles": "Cc1ccc(CSc2nnnn2C)cc1", "activity change, negative = inhibition": "inactive: 11.7%"}
{"smiles": "Cc1oc(-c2ccccc2)nc1Cn1cccc1C1=NC(c2ccccc2)CO1", "note": "(configuration not stated)", "Potency": "inconclusive: 25.1 µM [inhibitor, single point]"}
{"smiles": "CC(=O)Nc1ccc(Nc2ncnc(N)c2[N+](=O)[O-])cc1", "Potency": "inconclusive: 6.31 µM [inhibitor, single point]"}
{"smiles": "COc1ccc(C(=O)c2sc(Nc3cccc(OC)c3)c(C(=O)Nc3cccc(C)c3C)c2N)cc1", "Potency": "inconclusive: 20.6 µM [inhibitor, single point]"}
{"smiles": "O=C(NCc1ccco1)c1cc(C(=O)C2CCCCC2)c[nH]1", "Potency": "inconclusive: 14.6 µM [inhibitor, partial curve, poor fit]"}
{"smiles": "COc1ccc(OC)c(NC(=O)CN2C(=O)c3ccccc3Sc3ccc(C(=O)N4CCCC4)cc32)c1", "Potency": "inconclusive: 35.5 µM [inhibitor, single point]"}
{"smiles": "CCOC(=O)c1c(Oc2ccc(OC)cc2)nnc(-c2ccccc2)c1-c1ccccc1", "activity change, negative = inhibition": "inactive: -16.9% [at 46.1 µM]"}
{"smiles": "CCCCc1ccc(NC(=O)CN2C(=O)C3CCCCC3C2=O)cc1", "note": "(configuration not stated)", "Potency": "inconclusive: 10 µM [inhibitor, single point]"}
{"smiles": "COc1ccc(Cn2c(-c3ccc(C)cc3)nc3c(c(=O)c4ccccc4n3C)c2=O)cc1", "Potency": "inconclusive: 35.5 µM [inhibitor, single point]"}
{"smiles": "CN1CCc2ccccc2C1C1CCNCC1", "note": "(configuration not stated)", "Potency": "inconclusive: 32.6 µM [inhibitor, single point]"}
{"smiles": "N#CCC(=O)N/N=C/c1c(-c2ccccc2)n(-c2ccccc2)c2ccccc12", "Potency": "inconclusive: 10 µM [inhibitor, partial curve, poor fit]"}
{"smiles": "COc1ccccc1NS(=O)(=O)c1cc(NC(=O)c2cccs2)ccc1N1CCCCC1", "Potency": "inconclusive: 3.26 µM [inhibitor, full curve, poor fit]"}
{"smiles": "c1ccc(-c2csc(Nc3ccccn3)n2)cc1", "Potency": "inconclusive: 2.24 µM [inhibitor, full curve, poor fit]"}
{"smiles": "C[C@H]1CN(c2ccccc2)C(=O)[C@H]1CC(=O)Nc1ccc(Br)cc1", "activity change, negative = inhibition": "inactive: -4.02% [at 46.1 µM]"}
{"smiles": "Cc1ccc(CC(=O)N2CCN(c3cccc(C(F)(F)F)c3)CC2)cc1", "Potency": "inconclusive: 35.5 µM [inhibitor, single point]"}
{"smiles": "CCN(c1ccccc1)S(=O)(=O)c1ccc2c(c1)CC(C)N2C(=O)C1CC1", "note": "(configuration not stated)", "Potency": "inconclusive: 3.16 µM [inhibitor, partial curve, poor fit]"}
{"smiles": "COc1cc(SC)ccc1C(=O)Nc1ccc(C)cc1", "Potency": "inconclusive: 14.1 µM [inhibitor, single point]"}
{"smiles": "O=C(N/N=C/c1cccnc1)c1cc(-c2ccccc2OCc2ccccc2)n[nH]1", "Potency": "inconclusive: 10 µM [inhibitor, partial curve, poor fit]"}
{"smiles": "O=c1cc(-c2ccccc2)c2cc(Cl)c3c(c2o1)CN(Cc1ccccc1)CO3", "activity change, negative = inhibition": "inactive: 3.12% [at 46.1 µM]"}
{"smiles": "C1CCCN(c2nc3nonc3nc2N2CCCCCC2)CC1", "activity change, negative = inhibition": "inactive: 29.2%"}
{"smiles": "CCCC=Cc1ccc(CN2C(C)C(=O)N(Cc3cn(Cc4ccco4)nn3)CCS2(=O)=O)cc1", "note": "(configuration not stated)", "Potency": "inconclusive: 0.0125 µM [activator, full curve, poor fit]"}
{"smiles": "COc1ccccc1-c1cc(C(F)(F)F)nc(S(=O)(=O)CCCC(=O)Nc2cc(OC)c(OC)c(OC)c2)n1", "Potency": "inconclusive: 35.5 µM [inhibitor, single point]"}
{"smiles": "O=C1CN(C(=O)COC(=O)c2cccnc2Cl)c2ccccc2N1", "Potency": "inconclusive: 35.5 µM [activator, single point]"}
{"smiles": "COc1ccc(OC)c(-c2cc(C(=O)NC(C)c3ccccc3)no2)c1", "note": "(configuration not stated)", "Potency": "inconclusive: 10 µM [inhibitor, partial curve, poor fit]"}
{"smiles": "Cc1nc(C)c(-c2csc(Nc3ccc(S(N)(=O)=O)cc3)n2)s1", "Potency": "inconclusive: 22.4 µM [inhibitor, single point]"}
{"smiles": "COc1cccc(-c2ccc3c(N)c(C(=O)NCc4ccc(Cl)cc4)sc3n2)c1", "Potency": "active: 7.94 µM"}
{"smiles": "O=[N+]([O-])c1ccc2c(c1)C(N1CCOCC1)/C(=C/COc1ccc(Cl)cc1Cl)O2", "note": "(configuration not stated)", "Potency": "inconclusive: 15.8 µM [inhibitor, partial curve, poor fit]"}
{"smiles": "COc1ccc2oc(C(=O)OC(C)C(=O)NCc3ccccc3)c(C)c2c1", "note": "(configuration not stated)", "Potency": "inconclusive: 22.4 µM [inhibitor, single point]"}
{"smiles": "CCN1C(=O)C(=Cc2ccc(C)s2)C(=O)N(CC)C1=S", "Potency": "inconclusive: 7.08 µM [activator, partial curve, poor fit]"}
{"smiles": "CCN(CC)S(=O)(=O)c1ccc(N2CCOCC2)c(NC(=O)c2ccc(N3CCCC3=O)cc2)c1", "Potency": "inconclusive: 7.94 µM [inhibitor, partial curve, poor fit]"}
{"smiles": "CC(C)(C)N(NC(=O)OCc1ccccc1)C(=O)c1ccccc1", "Potency": "inconclusive: 29.1 µM [inhibitor, single point]"}
{"smiles": "CN(C(=O)C(=O)Nc1ccc2nc3n(c(=O)c2c1)CCCCC3)c1cccc(C(F)(F)F)c1", "activity change, negative = inhibition": "inactive: 7.89% [at 46.1 µM]"}
{"smiles": "CCOC(=O)c1c(C)oc2c1c1c(c3ccccc32)OCN(Cc2cccnc2)C1", "Potency": "inconclusive: 22.4 µM [inhibitor, partial curve, poor fit]"}
{"smiles": "Cc1ccc(N(CC#N)C(=O)CS(=O)(=O)c2cccc([N+](=O)[O-])c2)cc1", "Potency": "inconclusive: 35.5 µM [inhibitor, single point]"}
{"smiles": "C#CCN1C(=O)[C@]2(OCCC=C[C@H]2C)c2ccccc21", "Potency": "inconclusive: 0.106 µM [activator, full curve, poor fit]"}
{"smiles": "COc1cc(/C=N/n2c(-c3ccc4c(c3)NC(=O)CO4)csc2=Nc2cccc(C)c2)ccc1O", "Potency": "active: 23.1 µM"}
{"smiles": "COc1ccccc1C(=O)Nc1nnc(SCC(=O)Nc2ccc3c(c2)oc2ccccc23)s1", "Potency": "inconclusive: 2.91 µM [activator, full curve]"}
{"smiles": "COc1ccc2c(Cl)c(C(=O)NCC3CCCO3)sc2c1Cl", "note": "(configuration not stated)", "activity change, negative = inhibition": "inactive: -0.0786%"}
{"smiles": "COc1ccc2[nH]c(=O)c(CN(C(C)=O)c3ccc(C)c(C)c3)cc2c1", "Potency": "inconclusive: 17.8 µM [inhibitor, single point]"}
{"smiles": "CC(=O)Nc1ccc(NC(=O)C2CCCCC2C(=O)O)cc1", "note": "(configuration not stated)", "activity change, negative = inhibition": "inactive: 13.5%"}
{"smiles": "CN(CC(=O)Nc1ccc(Cl)c(C(F)(F)F)c1)C(=O)/C=C/c1ccco1", "activity change, negative = inhibition": "inactive: -0.838%"}
{"smiles": "O=C(NN=Cc1c(O)ccc2ccccc12)C1CC1", "Potency": "inconclusive: 7.94 µM [inhibitor, partial curve, poor fit]"}
{"smiles": "COc1ccc(S(=O)(=O)NCCCCC(=O)O)cc1C(=O)O", "Potency": "inconclusive: 0.891 µM [activator, full curve, poor fit]"}
{"smiles": "COc1cccc(CN2CC(C(=O)NC3CCCCCC3)CCC2=O)c1", "note": "(configuration not stated)", "activity change, negative = inhibition": "inactive: 0.404% [at 46.1 µM]"}
{"smiles": "Cc1cnc(C(=O)Nc2ccc(-n3cnnn3)cc2)cn1", "activity change, negative = inhibition": "inactive: 13.7%"}
{"smiles": "CCOC(=O)C1CCCc2c1[nH]c1ccc(Cl)cc21", "note": "(configuration not stated)", "Potency": "inconclusive: 15.8 µM [inhibitor, partial curve, poor fit]"}
{"smiles": "c1csc(-c2nc(CN3CCSCC3)cs2)c1", "Potency": "inconclusive: 7.94 µM [inhibitor, partial curve]"}
{"smiles": "O=C(Nc1ccc(Br)cc1Cl)c1cnccn1", "activity change, negative = inhibition": "inactive: 19.2%"}
{"smiles": "CCCCCC1(C)NC(=S)N(c2ccccc2)N1", "note": "(configuration not stated)", "activity change, negative = inhibition": "inactive: -19.8%"}
{"smiles": "Cc1ccc(S(=O)(=O)N2CCOCC2)cc1C(=O)Nc1ccccc1C(=O)O", "Potency": "inconclusive: 3.16 µM [inhibitor, single point]"}
